Laboratory results: PubChem BioAssay AID504444 (National Center for Advancing Translational Sciences (NCATS), 2011)
Hit rate of the full screen: of about 360,000 compounds, about 7,500 (2.1%) were called active. The inconclusive results got no clear call from the source; some entries with a clear call stand among them for comparison. The call rests on the fitted dose curve; in most records, active means well fitted inhibition curve with a large enough effect; inconclusive means small, poorly fitted or top-dose-only effect, or effect the other way; inactive means flat fitted curve, though single readings scatter. Potencies of inconclusive entries are doubtful fits and often do not repeat.

Assay: Nrf2 qHTS screen for inhibitors; further: nearly all actives have a fitted effect of over 60% in size
Settings: A549 ARE-Fluc reporter, luciferase luminescence, 18-24 h; series mostly up to 46 µM
Summary of the method: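 Two sequential reads on A549 ARE_Fluc cells exposed to compound for 18-24 h: a CellTiter-Fluor fluorescence read for viability, then a luciferase luminescence read for Nrf2/ARE activity.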
Potency means the concentration at half of the fitted maximal effect.

SMILES | Potency
COC(=O)CSc1nc(Cc2ccccc2)nc2ccccc12 | inconclusive: 25.9 µM [falling, partial curve, poor fit]
COC(=O)c1ccc(CSc2nnnn2-c2ccc(C)cc2C)o1 | inconclusive: 29.1 µM [falling, single point]
O=C(COc1ccccc1)Nc1nnc(S(=O)(=O)Nc2ccccc2)s1 | inconclusive: 5.17 µM [falling, full curve, poor fit]
CCN(CC)c1nc(N)c2c(N)nc(OC)cc2c1C#N | inactive
Cc1oc(C(C)(C)C)cc1C(=O)Nc1ccc(C(=O)O)cc1 | inconclusive: 5.8 µM [activator, full curve]
O=Cc1c(N2CCN(c3ccccc3)CC2)nc2ccccn2c1=O | inconclusive: 0.82 µM [falling, full curve, poor fit]
COc1cccc(-c2sc3cc(OC)c(OC)cc3c2-c2ccc(OCCN3CCCCC3)cc2)c1 | inconclusive: 16.4 µM [falling, partial curve, poor fit]
Cc1ccc2cc3cc(C(=O)N4CCCCC4C)oc3nc2c1 (stereo not given) | inconclusive: 1.46 µM [activator, full curve]
CCCCNC(=O)c1nnn(-c2ccccc2)c1N | inconclusive: 1.84 µM [activator, full curve]
O=C(CCC1CCCN(C(=O)c2ccc3c(c2)OCO3)C1)N1CCN(c2ccccn2)CC1 (stereo not given) | inconclusive: 29.1 µM [falling, partial curve, poor fit]
Cc1ccc2nc(-c3ccc(N4C(=NC(=O)CCC(=O)O)SC5CS(=O)(=O)CC54)cc3)sc2c1 (stereo not given) | inconclusive: 4.11 µM [activator, full curve]
COc1ccc(C(=O)c2sc3nc4c(c(C(F)(F)F)c3c2N)CN(C(C)=O)CC4)cc1OC | inconclusive: 13 µM [falling, partial curve]
O=c1[nH]c(C2CCN(S(=O)(=O)c3ccc(C(F)(F)F)cc3)CC2)nc2c1nnn2Cc1cccc(F)c1 | inconclusive: 29.1 µM [falling, single point]
CCn1cc(C(=O)NCc2ccncc2)c(=O)c2cc(F)c(N3CCN(C(=O)c4ccco4)CC3)cc21 | inactive
CC(C)N(C(=O)[C@H]1C[C@H](CC(=O)NCc2cccc(C(F)(F)F)c2)C(=O)N2CCc3c([nH]c4cc(CCC(=O)N(C)C)ccc34)[C@]12C)C(C)C | inconclusive: 16.4 µM [falling, partial curve, poor fit]
CN(C)N=Nc1ccc(-c2cn(Cc3ccccc3)cn2)cc1 | inconclusive: 4.11 µM [activator, full curve, poor fit]
Cc1ccc(NC(=O)C2CCCN(C(=O)c3ccc(Cl)cc3)C2)cc1C (stereo not given) | inconclusive: 29.1 µM [falling, single point]
CCOCCCn1c(=N)c(S(=O)(=O)c2ccc(C)cc2)cc2c(=O)n3cc(C)ccc3nc21 | inactive
COc1ccc(NC2CCCN(C(=O)CCC3=NNC(=O)CC3)C2)cc1 (stereo not given) | inconclusive: 2.91 µM [activator, full curve, poor fit]
Nc1nc(-c2ccc(Cl)cc2)c(S(=O)(=O)c2ccccc2)s1 | inconclusive: 16.4 µM [falling, partial curve]

Look-ups from the entries so far.
For Potency, Cc1oc(C(C)(C)C)cc1C(=O)Nc1ccc(C(=O)O)cc1 has the entry inconclusive: 5.8 µM [activator, full curve]
For Potency, CCCCNC(=O)c1nnn(-c2ccccc2)c1N has the entry inconclusive: 1.84 µM [activator, full curve]
For Potency, COc1cccc(-c2sc3cc(OC)c(OC)cc3c2-c2ccc(OCCN3CCCCC3)cc2)c1 has the entry inconclusive: 16.4 µM [falling, partial curve, poor fit]
For Potency, COC(=O)CSc1nc(Cc2ccccc2)nc2ccccc12 has the entry inconclusive: 25.9 µM [falling, partial curve, poor fit]

The listing continues:

SMILES | Potency
Cc1csc2nc(COC(=O)c3ccc(Cl)c([N+](=O)[O-])c3)cc(=O)n12 | inactive
Cc1nc2ccc(-c3nc4cc(N)ccc4o3)cc2[nH]1 | inconclusive: 0.58 µM [activator, full curve, poor fit]
CCn1c(C(=O)O)c(CC(=O)Nc2cccc(C(F)(F)F)c2)c2ccccc21 | inactive
CC(C)C1N=C2c3ccccc3N=C(SCC(=O)NCCc3ccc(S(N)(=O)=O)cc3)N2C1=O (stereo not given) | inconclusive: 1.84 µM [falling, partial curve, poor fit]
CCOc1ccc(CNC(=O)C2CCN(C(=O)c3ccc(-n4ccc5ccccc54)s3)CC2)cc1 | inconclusive: 29.1 µM [falling, single point]
COc1ccc2c(=O)c3c(=O)n(Cc4ccco4)c(-c4ccccc4)nc3oc2c1 | inconclusive: 14.6 µM [falling, partial curve, poor fit]
COc1ccccc1OCc1cc(C(=O)N2CCCC(OCc3cccnc3)C2)no1 (stereo not given) | inconclusive: 2.31 µM [activator, full curve]
O=C(/C=C/c1ccccc1)Nc1ccc(NC(=O)c2cccs2)cc1 | inconclusive: 10.3 µM [falling, partial curve]
CCOc1ccc(NC(=O)CN(C)CC(=O)Nc2ccccc2C#N)cc1OCC | inconclusive: 29.1 µM [activator, single point]
Cc1nnc(NC(=O)c2ccc(F)c(S(=O)(=O)N3CCCCC3)c2)s1 | inconclusive: 6.51 µM [activator, partial curve, poor fit]
Cc1cccc(NC(=O)Cn2c(=O)n(CCCCCC(=O)NCc3ccccc3)c(=O)c3sccc32)c1 | inconclusive: 29.1 µM [falling, single point]
Cc1cccnc1NC(=O)Cn1nc(-c2ccccc2)oc1=S | inconclusive: 6.51 µM [activator, full curve]
CCCC(=O)Nc1cc(-c2nn(C)c(=O)c3ccccc23)ccc1N1CCCCC1 | inconclusive: 29.1 µM [falling, single point]
CC(C)(C)OC(=O)NCc1ccc(NC(=O)c2nc[nH]c2C(=O)NCCCNC(=O)c2[nH]cnc2C(=O)Nc2ccc(CNC(=O)OC(C)(C)C)cc2)cc1 | inactive
Cc1sc(NC(=O)c2ccccc2)c(C(c2ccc(Cl)cc2)N2CCN(CCO)CC2)c1C (stereo not given) | inconclusive: 29.1 µM [falling, single point]
CCOc1ccccc1N1CC(C(=O)N2CCN(Cc3ccc(C#N)cc3)CC2)CC1=O (stereo not given) | inconclusive: 14.6 µM [falling, partial curve, poor fit]
CCCCC[C@H]1CN(Cc2ccccc2)C(=O)[C@@H]1CC(=O)NCc1ccc(OC)cc1 | inactive
COCCCn1cnc2oc3nc4ccccc4nc3c2c1=O | inconclusive: 0.517 µM [activator, full curve, poor fit]
CCOCCCNC(=O)c1cccc(OC2CCN(S(C)(=O)=O)CC2)c1 | inconclusive: 6.51 µM [activator, partial curve]
O=C(Nc1ccccc1)n1cc(-c2ccccn2)c(N2CCOCC2)n1 | inconclusive: 4.11 µM [activator, full curve, poor fit]

SMILES | Potency
COc1ccc(NC(=O)N2CCc3cc(OC)c(OC)cc3C2)cc1 | inconclusive: 23.1 µM [falling, partial curve]
Nc1nc(-c2ccc([N+](=O)[O-])cc2)c(C(=O)Nc2ccc(Cl)cc2)s1 | inconclusive: 8.2 µM [falling, partial curve, poor fit]
Cc1cc(NC(=O)C(C)Sc2nc(-c3cccs3)nc3ccccc23)no1 (stereo not given) | inconclusive: 5.17 µM [falling, full curve]
CCN(CCn1cccn1)C(=O)CCc1nnc(Cc2c[nH]c3ccccc23)o1 | inconclusive: 7.31 µM [activator, partial curve, poor fit]
Cc1ccccc1CCNC(=O)c1ccc(Cn2c(=O)c3cccn3c3cccnc32)cc1 | inconclusive: 29.1 µM [falling, single point]
CS(=O)(=O)c1cccc(C(=O)Nc2ccc3c(c2)OCCCO3)c1 | inconclusive: 11.6 µM [activator, partial curve]
C=C(CN(C)C)C(=O)c1ccc(OC2OC(COC(C)=O)C(OC(C)=O)C(OC(C)=O)C2OC(C)=O)cc1 (stereo not given) | inconclusive: 25.9 µM [falling, single point]
O=C(Cn1cc(/C=N/NC(=O)c2cccc(C(F)(F)F)c2)c2ccccc21)Nc1ccc(F)cc1 | inconclusive: 23.1 µM [falling, single point]
Cc1ccc(C(=O)c2oc3ccccc3c2NC(=O)c2cc(-c3cc(C)ccc3O)n[nH]2)cc1 | active: 25.9 µM
CC(=O)Nc1ccc(-c2csc(NC(C)c3ccccc3)n2)cc1 (stereo not given) | inconclusive: 16.4 µM [activator, partial curve, poor fit]
CCOC(=O)/C=c1\s/c(=C(\C#N)C(=O)NC)n(-c2ccccc2)c1=O | inactive
CCCCCn1c(CCCNC(=O)c2ccc(Cl)cc2)nc2ccccc21 | inconclusive: 29.1 µM [falling, partial curve, poor fit]
NS(=O)(=O)c1ccc(O)c(NC(=O)c2ccc([N+](=O)[O-])o2)c1 | inactive
CCOc1ncccc1C(=O)Nc1ccc(C)cn1 | inconclusive: 8.2 µM [activator, partial curve, poor fit]
CC(C)[C@@H](C(=O)NC1CCN(Cc2ccccc2)CC1)N1C(=O)N2CCc3c([nH]c4ccccc34)[C@@]2(C)C1=O | inconclusive: 0.731 µM [falling, partial curve, poor fit]
COc1ccc(-c2nc(C(=O)Nc3cccc(C(C)=O)c3)nn2-c2ccccc2Cl)cc1 | inconclusive: 23.1 µM [falling, partial curve, poor fit]
CC(=O)Nc1cccc(-c2nc3ccccc3s2)c1C | active: 7.31 µM
Oc1ccccc1-c1cc(-c2ccco2)[nH]n1 | inconclusive: 2.06 µM [activator, full curve, poor fit]
COc1cccc(C(=O)Nc2nc3ccccc3s2)c1 | inconclusive: 1.64 µM [activator, full curve]
Nc1nc(CCl)nc(Nc2cccc3ccccc23)n1 | inconclusive: 23.1 µM [falling, partial curve, poor fit]
